Assay results: PMC10163288
Some of the results follow.

B1: il10ra_site1_sap_22_mot_1c3c3e46dde0d4e4be3ec3dd9add6289_0001_000000096_0001_34_50_H_._HHH_b1_00258_af2_0001_0000400016_0000001_0_0001 (protein)
chain: SSSSDEAYRLVKEAIEEALELWRNGNPEEARQLIEEVIEELRELGNWAAVWAAEHVLRVLRSSSS
B2: il10ra_site1_normal_mot_HHH_b2_00622_af2_000000153_0001_40_57_H_._HHH_b2_08153_af2_0001_0000100006_0000001_0_af2pred_dldesign_0_af2pred (protein)
chain: SSSSSEARALVRRSLAAARELLERGLPEEARKLVEYALELAKQAGDEELLAEAEALLAELESSSS
B3: il10ra_site1_sap_12_mot_HHH_b2_00984_000000042_0001_1_20_H_._HHH_b1_02095_af2_0001_0000200010_0000001_0_0001 (protein)
chain: SSSSSESDEIYELLQEALELRANGDPEEAREVLEEAERLAEEANNRLFRMQIRFVLKELESSSSS
B4: il10ra_site1_sap_21_mot_HHH_b1_04638_000000131_0001_21_38_H_._HHH_b1_01673_0001_0000100003_0000001_0_0001_af2pred_dldesign_0_af2pred (protein)
chain: SSSSSAEELTRQALRAARLALEAGDLEAARRALETARALAEKAGNAELLEEIAALERELESSSSS
B5: il10ra_site1_normal_mot_HHH_b1_07743_af2_000000164_0001_42_55_H_._HHH_b2_03069_af2_0001_0000200004_0000001_0 (protein)
chain: SSSSDLEEIVRRVAEALVEAARIDDEREVEELLEEAKQLAEEANNDILRAQIEFVEKLLNSSSSS
B6: il10ra_site1_sap_13_mot_HHH_b2_06864_af2_000000190_0001_1_20_H_._HHH_b2_05372_0001_0000100002_0000001_0_0001 (protein)
chain: SSSSSAEFLIRQALRAVELALKAGDPEEARRALKIAELLAEQAGDPEVREEVEEMEEQINSSSSS
B7: il10ra_site1_sap_16_mot_HHH_b2_00092_000000181_0001_22_39_H_._HHH_b2_04089_0001_0000300023_0000001_0_0001_af2pred_0001 (protein)
chain: SSSSSSERVKLSIRFAELLLEDGDPEAARFIIEAAQELAERDGDEELLEEAEELLREIESSSSSS
B8: il10ra_site1_sap_20_mot_HHH_b2_00475_000000002_0001_44_57_H_._HHH_b2_00229_0001_0000300039_0000002_0_0001 (protein)
chain: SSSSSSHEESQRVIELIRRAARIRDEEELKEVLEEARELAEELGSDVFRWQVEYLLRAQTSSSSS
B9: il10ra_site1_sap_26_mot_HHH_b1_01082_af2_000000031_0001_3_19_H_._ead7110553fcc56fee53bdb6698f5c61_0001_af2_0001_0000500012_0000001_0_0001 (protein)
chain: SSSSDEQQRVLELVLEAFRLLLRGNPEEAEKLLEEARELAEEAGDERILKMIEDLLRAINSSSSS
B10: il10ra_site1_normal_mot_HHH_b2_05454_000000273_0001_1_18_H_._HHH_b1_00039_af2_0001_0000900043_0000001_0 (protein)
chain: SSSSSSDIARLAAEAVRLALRLGDEEVFQRIWELFKRWAEEGDPRYEEELEELLEELRSSSSSSS
B11: il10ra_site1_sap_17_mot_HHH_b2_00137_af2_000000090_0001_1_17_H_._HHH_b1_04486_af2_0001_0000100004_0000001_1_0001_af2pred_0001 (protein)
chain: SSSSSDDQRVLRLLRRALKAIFRGNPEEVRELLEEAEEIARENNDEKLERAIEMVRHLLESSSSS
B12: il10ra_site1_sap_11_mot_HHH_b2_03438_af2_000000049_0001_18_34_H_._HHH_b1_03290_0001_0000200016_0000001_0_0001 (protein)
chain: SSSSDARREIYELLREAVELDHEGNPEEAEKVLEEAEELAREAGDRLFLHVVEYLQRVLNSSSSS
B13: il10ra_site1_normal_mot_HHH_b1_00814_af2_000000078_0001_43_57_H_._HHH_b2_06398_0001_0000300036_0000001_0_af2pred_dldesign_0_af2pred (protein)
chain: SSSSSSPAAVEVNRLLEEALKEEDPDKRFALIKKATQLAGDAEDGALLQKVAEVARKLLESSSSS
B14: il10ra_site1_normal_mot_HHH_b2_07440_af2_000000021_0001_1_18_H_._HHH_b1_07357_0001_0000500040_0000001_0 (protein)
chain: SSSSDEEEERILELSLEAFRLALRGNPEEAREVLEEALELAREAGNERAVEILEDLLQALSSSSS
B15: il10ra_site1_sap_24_mot_HHH_b2_03708_000000000_0001_1_18_H_._HHH_b1_01390_af2_0001_0000700015_0000001_0_0001_af2pred_0001 (protein)
chain: SSSSSDLERSFRFLEDALRLIRELGDEERLKLTFRFMEFDIRAANNEELLKELEELKKELSSSSS
B16: il10ra_site1_sap_19_mot_HHH_b1_08697_af2_000000298_0001_1_18_H_._HHH_b1_07925_0001_0000300029_0000001_0_0001_af2pred_0001 (protein)
chain: SSSSSRLERSVELLLRSAELAYEEGDPELAEISLEEALLVAEEANNPELHELVKRILEELGSSSS
B17: il10ra_site1_normal_mot_HHH_b2_00475_000000107_0001_44_57_H_._HHH_b1_06647_af2_0001_0000500026_0000001_0_af2pred_dldesign_0_af2pred (protein)
chain: SSSSKEQEVVQLIHDAVRLLDQGRPEEALAALEEAEKLAKELKDEELIAAVEKARRFVESQSSSS
B18: il10ra_site1_normal_mot_8756ee2cf497b5429c717dfc0c0bcfd6_0001_000000186_0001_1_13_H_._HHH_b1_03047_af2_0001_0000300019_0000001_1 (protein)
chain: SSSSSAQEVIELIRRAARLEHEGNPEEARKLLEEAEELAEKLGNDVLLAQIRYLERIIENSSSSS
B19: il10ra_site1_sap_21_mot_HHH_b1_08622_000000192_0001_23_40_H_._HHH_b1_05218_0001_0000500032_0000001_0_0001_af2pred_0001 (protein)
chain: SSSSSSEVEELIREAQEAAEEQGDEEARLLLEFLERAFKLGVASERTAEASARNLLKLLGSSSSS
B20: il10ra_site1_normal_mot_HHH_b2_00277_af2_000000172_0001_1_17_H_._HHH_b2_06211_0001_0000100010_0000002_0 (protein)
chain: SSSSSDVEERIEELLEEAKHIPDRAHRTYVLIEAYALAHQLGNPEILEEVREVAIRLAERSSSSS
B21: il10ra_site1_normal_mot_HHH_b2_02337_000000026_0001_38_52_H_._HHH_b2_01645_0001_0000100007_0000001_0 (protein)
chain: SSSSSDEEEEEVERLLERAEKVEDPREFAELALRALRIAWEINNEELLREIWRLVQEWGSSSSSS
B22: il10ra_site1_normal_mot_HHH_b1_05357_000000034_0001_23_39_H_._HHH_b2_00526_af2_0001_0000600012_0000001_1_af2pred_0001 (protein)
chain: SSSSSSEEEEELEELLKEAEKIEDPDERAYVLIRAYALAVRLNDPELEELVREVAIRLSSSSSSS
B23: il10ra_site1_sap_16_mot_HHH_b2_03438_af2_000000049_0001_18_34_H_._ems_p1-15H-GBL-16H-GABBL-16H_0175_0001_0001_0002_0001_0000100003_0000001_0_0001 (protein)
chain: SSSSDAHELYRLSREAAELLAEGNPEEAEKLLEEAQKIAEEANDRVLLVVIRFLLRQVERASSSS
B24: il10ra_site1_normal_mot_HHH_b2_06857_af2_000000179_0001_42_54_H_._HHH_b1_05676_af2_0001_0000100011_0000002_0 (protein)
chain: SSSSDELERVFELLRRAAELHSDGDKEEAEKLLEEAEELAEELGNELLRWQIEFLLRALDSSSSS
B25: il10ra_site1_normal_mot_HHH_b1_06789_af2_000000041_0001_1_20_H_._HHH_b2_02598_af2_0001_0000900017_0000001_0_af2pred_dldesign_0_af2pred (protein)
chain: SSSSSAARYMVEQALTAARNLKAAGYLEEAKKALEIARKIAEQNNDAEALKEIAEVEKELESSSS
B26: il10ra_site1_normal_mot_HHH_b2_00622_af2_000000153_0001_40_57_H_._HHH_b1_08750_0001_0000200006_0000001_1_af2pred_0001 (protein)
chain: SSSSSSEEAERLLRILIRAAKQIEDPELRKLSLRAALASAEATGDEELLEEIRQLLEELNSSSSS
B27: il10ra_site1_normal_mot_HHH_b2_03220_af2_000000223_0001_23_40_H_._HHH_b1_07482_0001_0000100005_0000001_0 (protein)
chain: SSSSTEEAEEVWELLREALELREKDPEEARRLVEEAEEIAEEANNENLEFVIRFLLRDINSSSSS
B28: il10ra_site1_sap_22_mot_HHH_b1_07211_af2_000000161_0001_24_40_H_._HHH_b1_07393_0001_0000300023_0000002_0_0001 (protein)
chain: SSSSDASDELYKLSKEALQLEHEGNPEEARRVLEEAEELAEEAGNMVALVNLRYLLERLNSSSSS
B29: il10ra_site1_normal_mot_8756ee2cf497b5429c717dfc0c0bcfd6_0001_000000186_0001_1_13_H_._HHH_b1_03926_0001_0000400036_0000001_0 (protein)
chain: SSSSDEVERIMELLRRASELDLEGNPEEAEELVEEALELARENNNDVLRAQAEYLLRIVRSSSSS
B30: il10ra_site1_sap_23_mot_HHH_b1_01821_000000158_0001_23_39_H_._ems_p1-15H-GBL-16H-GABBL-16H_0381_0001_0001_0002_0001_0000300011_0000003_0_0001 (protein)
chain: SSSSDEAYEFLEEVIKELIELAREGDEEEFEKLVREAERYLEELGNRMTLLSLRSAAEMLSSSSS
B31: il10ra_site1_normal_mot_HHH_b2_01310_000000089_0001_41_55_H_._HHH_b1_07197_af2_0001_0000200008_0000001_0 (protein)
chain: SSSSSEVEERVEQLLKEAEELIEEGDDERVVQLLQEAVRFAFEASNPELLRAVFEVAKLLNSSSS
B32: il10ra_site1_normal_mot_HHH_b2_04680_000000215_0001_1_16_H_._HHH_b2_06378_af2_0001_0000100001_0000001_0 (protein)
chain: SSSSSDEETRKAYRLLREAFEIEDPEEAHKVAEEALEIAEEGGNFVLAWAIRHLLKDLNSSSSSS
B33: il10ra_site1_normal_mot_812af5c65f29141b25d3ed263bec1fb2_0001_1_000000083_0001_36_50_H_._HHH_b2_03332_0001_0000400030_0000001_0_af2pred_0001 (protein)
chain: SSSSSDEEVEEEVERLLEEAKEIDDPEEAVELLVEAARLAYEANDPELLQLVAKVAKELSSSSSS
B34: il10ra_site1_normal_mot_HHH_b1_05357_000000034_0001_23_39_H_._HHH_b2_00878_af2_0001_0000100001_0000001_0_af2pred_0001 (protein)
chain: SSSSSSDLEEEVEKLLEEAEKIEDQLRLAYVLTRAYAVANRLNDPELRELIREVAKKLSSSSSSS
B35: il10ra_site1_sap_23_mot_HHH_b2_07145_000000158_0001_24_40_H_._HHH_b1_07925_af2_0001_0000300024_0000001_0_0001 (protein)
chain: SSSSTVLERSVRVAEEVAKELLEAGDPEAARELLEILLRLLREAGNEELVEELERLLEEIRSSSS
B36: il10ra_site1_sap_10_mot_HHH_b2_05343_000000235_0001_19_35_H_._HHH_b2_05720_0001_0000200027_0000001_0_0001 (protein)
chain: SSSSSDEEERVEELLEEAKEIEDHEERIRVLFEAIHLAIQLQDPELLRLVWEVFRKLAGSSSSSS
B37: il10ra_site1_sap_15_mot_HHH_b1_06994_000000193_0001_40_55_H_._HHH_b1_06779_0001_0000200020_0000002_0_0001 (protein)
chain: SSSSDEAVQEVAELAMEVSRALFRGDRERVEELLERMEELAREANNPAAELLVEIVESALESSSS

biological target: il10ra, Q13651; experiment: yeast display titration

Apparent Kd, inactive:
B1 no binding seen, B2 no binding seen, B3 no binding seen, B4 no binding seen, B5 no binding seen, B6 no binding seen, B7 no binding seen, B8 no binding seen, B9 no binding seen, B10 no binding seen, B11 no binding seen, B12 no binding seen, B13 no binding seen, B14 no binding seen, B15 no binding seen, B16 no binding seen, B17 no binding seen, B18 no binding seen, B19 no binding seen, B20 no binding seen, B21 no binding seen, B22 no binding seen, B23 no binding seen, B24 no binding seen, B25 no binding seen, B26 no binding seen, B27 no binding seen, B28 no binding seen, B29 no binding seen, B30 no binding seen, B31 no binding seen, B32 no binding seen, B33 no binding seen, B34 no binding seen, B35 no binding seen, B36 no binding seen, B37 no binding seen
